The structures appear in SMILES notation. Converted amounts (≈) assume the structure as drawn.

The record followed here is paper PMC7814697 (The Journal of organic chemistry, 2019).

For test [1], the system named is Staphylococcus aureus ATCC 29213. Put plainly: Minimum inhibitory concentration. It counts as cell-based. As to conditions: ATCC29213, read-out: MIC, Staphylococcus aureus ATCC 29213, with 0.002% polysorbate 80.
The test system of test [2] is Escherichia coli ATCC 10798. Put plainly: Minimum inhibitory concentration. It counts as cell-based. The settings on record: ATCC10798, read-out: MIC, Escherichia coli ATCC 10798, with 0.002% polysorbate 80.

With `CN[C@H](CC(C)C)C(=O)N[C@H]1C(=O)N[C@@H](CC(N)=O)C(=O)N[C@H]2C(=O)N[C@H]3C(=O)N[C@H](C(=O)N[C@H](C(=O)O)c4cc(O)cc(O)c4-c4cc3ccc4O)[C@H](O)c3ccc(c(Cl)c3)Oc3cc2cc(c3O[C@@H]2O[C@H](CO)[C@@H](O)[C@H](O)[C@H]2O[C@H]2C[C@](C)(N)[C@H](O)[C@H](C)O2)Oc2ccc(cc2Cl)[C@H]1O` [vancomycin], the MIC is 0.125 µg/mL (≈ 0.0863 µM) in test [1] and above 8 µg/mL in test [2].
